Here are results for six molecules from article PMC13572447.

By UniProt entry, the sequences of proteins in these tests, tags left out. Where a name states a change or a piece, a line headed by the entry shows the natural chain unless it says otherwise.
UniProt Q93009: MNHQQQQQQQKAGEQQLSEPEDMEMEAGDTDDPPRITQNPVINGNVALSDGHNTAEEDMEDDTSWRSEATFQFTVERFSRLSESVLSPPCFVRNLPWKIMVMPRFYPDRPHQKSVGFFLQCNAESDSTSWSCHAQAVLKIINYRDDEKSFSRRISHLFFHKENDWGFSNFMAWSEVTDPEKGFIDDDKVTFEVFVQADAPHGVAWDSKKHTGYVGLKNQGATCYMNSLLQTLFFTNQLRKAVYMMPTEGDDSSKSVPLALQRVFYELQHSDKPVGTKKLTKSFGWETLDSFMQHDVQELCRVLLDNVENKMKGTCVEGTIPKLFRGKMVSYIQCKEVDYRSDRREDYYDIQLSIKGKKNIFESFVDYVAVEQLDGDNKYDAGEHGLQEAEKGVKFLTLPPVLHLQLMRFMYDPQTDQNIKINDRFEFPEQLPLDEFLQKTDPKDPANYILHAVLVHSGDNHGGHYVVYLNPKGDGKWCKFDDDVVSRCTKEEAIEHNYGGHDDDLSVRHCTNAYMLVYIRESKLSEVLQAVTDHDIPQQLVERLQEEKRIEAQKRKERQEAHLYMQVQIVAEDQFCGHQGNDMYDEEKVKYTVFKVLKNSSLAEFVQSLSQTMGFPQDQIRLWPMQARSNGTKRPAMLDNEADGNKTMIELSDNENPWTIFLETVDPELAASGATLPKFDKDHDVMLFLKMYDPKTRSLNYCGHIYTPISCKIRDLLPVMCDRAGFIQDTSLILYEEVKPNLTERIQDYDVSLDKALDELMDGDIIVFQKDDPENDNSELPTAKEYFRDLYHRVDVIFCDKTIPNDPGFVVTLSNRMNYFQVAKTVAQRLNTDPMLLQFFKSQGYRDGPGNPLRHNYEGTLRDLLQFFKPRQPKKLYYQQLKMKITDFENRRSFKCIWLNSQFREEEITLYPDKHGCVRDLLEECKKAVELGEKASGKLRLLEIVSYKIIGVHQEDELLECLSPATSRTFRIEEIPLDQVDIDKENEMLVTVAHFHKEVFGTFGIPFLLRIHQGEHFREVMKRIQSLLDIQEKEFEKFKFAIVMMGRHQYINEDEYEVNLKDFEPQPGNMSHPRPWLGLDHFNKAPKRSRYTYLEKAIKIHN
UniProt P45974: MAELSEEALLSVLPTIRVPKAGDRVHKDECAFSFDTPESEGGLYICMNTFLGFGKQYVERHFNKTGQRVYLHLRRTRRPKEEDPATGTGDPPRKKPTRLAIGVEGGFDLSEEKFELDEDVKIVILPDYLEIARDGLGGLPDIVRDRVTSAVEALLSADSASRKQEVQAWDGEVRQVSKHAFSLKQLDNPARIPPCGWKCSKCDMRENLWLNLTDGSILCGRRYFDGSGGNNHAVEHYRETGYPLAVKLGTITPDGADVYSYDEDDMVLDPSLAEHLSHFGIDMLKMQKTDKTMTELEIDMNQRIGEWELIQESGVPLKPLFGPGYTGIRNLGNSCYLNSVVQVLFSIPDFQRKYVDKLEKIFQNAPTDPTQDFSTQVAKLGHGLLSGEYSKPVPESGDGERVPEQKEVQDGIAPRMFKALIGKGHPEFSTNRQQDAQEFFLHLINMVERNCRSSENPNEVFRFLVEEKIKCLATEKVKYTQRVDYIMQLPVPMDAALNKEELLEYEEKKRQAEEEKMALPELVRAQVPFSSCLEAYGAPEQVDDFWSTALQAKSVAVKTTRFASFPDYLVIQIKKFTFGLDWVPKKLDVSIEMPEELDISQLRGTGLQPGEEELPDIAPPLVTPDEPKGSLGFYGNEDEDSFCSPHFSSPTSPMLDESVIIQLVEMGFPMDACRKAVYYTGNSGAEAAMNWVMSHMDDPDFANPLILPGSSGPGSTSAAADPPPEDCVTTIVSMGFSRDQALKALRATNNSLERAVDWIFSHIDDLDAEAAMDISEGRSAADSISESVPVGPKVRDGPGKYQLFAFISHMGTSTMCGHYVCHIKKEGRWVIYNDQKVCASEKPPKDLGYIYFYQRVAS

For assay [1], the target named is T1, HA-SDE2UBL-PA activity-based probe (human) (UniProt Q6IQ49).
T1 sequence (chain, C-terminal propargylamide, Gly77 replaced with a propargyl electrophilic warhead): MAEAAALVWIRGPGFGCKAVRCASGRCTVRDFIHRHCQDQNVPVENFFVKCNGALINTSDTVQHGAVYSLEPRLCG
Description: co-IP; HEK293 lysate (500 µg) with 1 µM HA-SDE2UBL-PA, 45 min at 37 °C, quenched with 0.4% SDS and 0.5% NP-40, anti-HA magnetic beads, immunoblot for USP5, USP13 and HA; covalent adducts; only the target purified.

Assay [2] deals with T2, USP13 (318-862), recombinant truncated USP13 (UniProt Q92995).
T2 sequence: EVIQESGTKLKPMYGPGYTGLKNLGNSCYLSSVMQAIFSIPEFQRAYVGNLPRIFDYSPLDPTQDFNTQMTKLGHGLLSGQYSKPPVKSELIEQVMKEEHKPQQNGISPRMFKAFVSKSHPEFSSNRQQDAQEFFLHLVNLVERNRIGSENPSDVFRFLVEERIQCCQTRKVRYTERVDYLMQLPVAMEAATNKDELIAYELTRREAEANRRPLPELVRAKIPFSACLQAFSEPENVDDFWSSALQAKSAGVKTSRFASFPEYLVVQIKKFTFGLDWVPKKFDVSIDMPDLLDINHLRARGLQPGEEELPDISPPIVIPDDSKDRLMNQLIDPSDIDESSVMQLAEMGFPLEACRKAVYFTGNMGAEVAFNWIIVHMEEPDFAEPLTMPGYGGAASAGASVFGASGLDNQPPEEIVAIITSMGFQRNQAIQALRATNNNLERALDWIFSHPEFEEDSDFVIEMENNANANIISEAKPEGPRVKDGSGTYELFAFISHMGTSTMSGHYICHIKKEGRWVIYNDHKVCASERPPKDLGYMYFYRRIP
In words: activity-based probe labelling (covalent adduct on SDS-PAGE); purified DUB 1 µM with probe 2 µM in 50 mM Tris pH 7.5, 1 mM DTT, 37 °C; quenched with LDS/DTT; shows only the covalent probe-enzyme adduct as a band shift; both purified.

The target of assay [3] is USP7, recombinant (human) (UniProt Q93009). The assay is described as above.
The target of assay [4] is catalytically inactive USP5 C335A, recombinant (human) (UniProt P45974). In words: ITC; SDE2 construct or Ub titrated into USP5 construct; ITC200, 298 K; 50 mM HEPES, 100 mM NaCl, 1 mM TCEP, pH 7.5; duplicate experiments; both purified. In general terms: In ITC the heat of successive injections is recorded.
Assay [5] shares this target. Description: FRET or BRET; TR-FRET: Cy5 labelled SDE2 or Ub constructs titrated into His-tagged USP5 with Eu labelled anti-His6 antibody (2 nM); 20 mM HEPES, 150 mM NaCl, 1 mM TCEP, 0.5% DMSO, 0.05% Tween-20, pH 7.5; 1 h at room temperature; both purified. (BRET reads energy transfer from a luciferase to a nearby fluorophore.)
Assay [6] addresses USP5 H232A, recombinant (human) (UniProt P45974). Description: ITC; SDE2 construct or Ub titrated into USP5 construct; ITC200, 298 K; 50 mM HEPES, 100 mM NaCl, 1 mM TCEP, pH 7.5; duplicate experiments; both purified.

No constants are given. Whether binding was seen depends on the method and setting. For some of these results: Binding seen in cells or lysates may run through a third protein. For some of these results: Where a sequence is shown, tags or fusion partners need not be part of it. Some binding calls cover weakened binding; strength is not graded here.

B1: endogenous USP13 of HEK293 cell lysate (enzyme, UniProt Q92995 1-863)
chain: MQRRGALFGMPGGSGGRKMAAGDIGELLVPHMPTIRVPRSGDRVYKNECAFSYDSPNSEGGLYVCMNTFLAFGREHVERHFRKTGQSVYMHLKRHVREKVRGASGGALPKRRNSKIFLDLDTDDDLNSDDYEYEDEAKLVIFPDHYEIALPNIEELPALVTIACDAVLSSKSPYRKQDPDTWENELPVSKYANNLTQLDNGVRIPPSGWKCARCDLRENLWLNLTDGSVLCGKWFFDSSGGNGHALEHYRDMGYPLAVKLGTITPDGADVYSFQEEEPVLDPHLAKHLAHFGIDMLHMHGTENGLQDNDIKLRVSEWEVIQESGTKLKPMYGPGYTGLKNLGNSCYLSSVMQAIFSIPEFQRAYVGNLPRIFDYSPLDPTQDFNTQMTKLGHGLLSGQYSKPPVKSELIEQVMKEEHKPQQNGISPRMFKAFVSKSHPEFSSNRQQDAQEFFLHLVNLVERNRIGSENPSDVFRFLVEERIQCCQTRKVRYTERVDYLMQLPVAMEAATNKDELIAYELTRREAEANRRPLPELVRAKIPFSACLQAFSEPENVDDFWSSALQAKSAGVKTSRFASFPEYLVVQIKKFTFGLDWVPKKFDVSIDMPDLLDINHLRARGLQPGEEELPDISPPIVIPDDSKDRLMNQLIDPSDIDESSVMQLAEMGFPLEACRKAVYFTGNMGAEVAFNWIIVHMEEPDFAEPLTMPGYGGAASAGASVFGASGLDNQPPEEIVAIITSMGFQRNQAIQALRATNNNLERALDWIFSHPEFEEDSDFVIEMENNANANIISEAKPEGPRVKDGSGTYELFAFISHMGTSTMSGHYICHIKKEGRWVIYNDHKVCASERPPKDLGYMYFYRRIPS
Consider B1, for which, in assay [1], the binding result is reported as “no binding (tested: probe 1 µM)”.

B2: HA-SDE2UBL-PA activity-based probe (domain or fragment, UniProt Q6IQ49-1 1-76)
chain: MAEAAALVWIRGPGFGCKAVRCASGRCTVRDFIHRHCQDQNVPVENFFVKCNGALINTSDTVQHGAVYSLEPRLCG
modifications: C-terminal propargylamide: Gly77 replaced with a propargyl electrophilic warhead
With B2, the binding result in assay [2] is given as “no binding (tested: probe 2 µM, DUB 1 µM)”; in assay [3], “no binding”.

B3: SDE2 C-terminal domain, SDE2CT(78-451) (domain or fragment, UniProt Q6IQ49-1 78-451)
chain: KGGFGSMLRALGAQIEKTTNREACRDLSGRRLRDVNHEKAMAEWVKQQAEREAEKEQKRLERLQRKLVEPKHCFTSPDYQQQCHEMAERLEDSVLKGMQAASSKMVSAEISENRKRQWPTKSQTDRGASAGKRRCFWLGMEGLETAEGSNSESSDDDSEEAPSTSGMGFHAPKIGSNGVEMAAKFPSGSQRARVVNTDHGSPEQLQIPVTDSGRHILEDSCAELGESKEHMESRMVTETEETQEKKAESKEPIEEEPTGAGLNKDKETEERTDGERVAEVAPEERENVAVAKLQESQPGNAVIDKETIDLLAFTSVAELELLGLEKLKCELMALGLKCGGTLQERAARLFSVRGLAKEQIDPALFAKPLKGKKK
B3: in assay [4], the binding entry is “no binding”.

B4: Cy5 labelled SDE2CT (domain or fragment, UniProt Q6IQ49-1 78-451)
chain: KGGFGSMLRALGAQIEKTTNREACRDLSGRRLRDVNHEKAMAEWVKQQAEREAEKEQKRLERLQRKLVEPKHCFTSPDYQQQCHEMAERLEDSVLKGMQAASSKMVSAEISENRKRQWPTKSQTDRGASAGKRRCFWLGMEGLETAEGSNSESSDDDSEEAPSTSGMGFHAPKIGSNGVEMAAKFPSGSQRARVVNTDHGSPEQLQIPVTDSGRHILEDSCAELGESKEHMESRMVTETEETQEKKAESKEPIEEEPTGAGLNKDKETEERTDGERVAEVAPEERENVAVAKLQESQPGNAVIDKETIDLLAFTSVAELELLGLEKLKCELMALGLKCGGTLQERAARLFSVRGLAKEQIDPALFAKPLKGKKK
modifications: Cy5 label, site not stated
Consider B4, for which the binding result in assay [5] is on record as “no binding”.

B5: Cy5 labelled SDE2UBL (domain or fragment, UniProt Q6IQ49-1 1-77)
chain: MAEAAALVWIRGPGFGCKAVRCASGRCTVRDFIHRHCQDQNVPVENFFVKCNGALINTSDTVQHGAVYSLEPRLCGG
modifications: Cy5 label, site not stated
In the case of B5, the binding entry in assay [5] is “binds”.

B6: SDE2 ubiquitin-like domain, SDE2UBL(1-77) (domain or fragment, UniProt Q6IQ49-1 1-77)
chain: MAEAAALVWIRGPGFGCKAVRCASGRCTVRDFIHRHCQDQNVPVENFFVKCNGALINTSDTVQHGAVYSLEPRLCGG
As to B6, the binding result in assay [6] is reported as “no binding”.
